Measurements as given in patent US20220119531A1.
These are yes or no findings as the source states them, for the method shown. Some entries that bind do so weakly or less than the wild type.

Chains of the proteins cited; added tags and fusions are not shown. Lines headed by an entry give the natural chain unless they say otherwise; changes in a name come on top. A line that says so, or that is headed by a name, gives the form on record, which may keep a tag or linker.
UniProt Q9NZQ7: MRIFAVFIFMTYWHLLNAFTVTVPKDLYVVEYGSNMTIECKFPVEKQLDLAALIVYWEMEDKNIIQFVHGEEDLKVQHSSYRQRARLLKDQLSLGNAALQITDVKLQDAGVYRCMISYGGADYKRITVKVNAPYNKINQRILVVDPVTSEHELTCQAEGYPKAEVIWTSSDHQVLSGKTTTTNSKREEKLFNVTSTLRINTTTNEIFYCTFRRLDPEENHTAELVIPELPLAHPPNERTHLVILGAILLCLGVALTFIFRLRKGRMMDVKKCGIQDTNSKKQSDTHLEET
rhesus PD-L1-Fc protein (F6PJN1, form named): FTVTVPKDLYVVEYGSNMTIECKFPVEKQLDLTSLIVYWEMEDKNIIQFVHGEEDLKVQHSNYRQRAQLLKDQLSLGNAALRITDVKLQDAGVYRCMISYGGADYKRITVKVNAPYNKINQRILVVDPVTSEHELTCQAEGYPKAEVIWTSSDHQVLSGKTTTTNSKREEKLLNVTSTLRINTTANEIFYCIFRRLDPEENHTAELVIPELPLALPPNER

Assays:
[1] = biological target: human PD-L1-Fc protein (human) (UniProt Q9NZQ7); assay: ELISA, plate coated with human PD-L1-Fc (FIG. 19)
[2] = biological target: human PD-L1-Fc protein (human) (UniProt Q9NZQ7); assay: ELISA, plate coated with human PD-L1-Fc (2 µg/ml), OD450
[3] = biological target: rhesus PD-L1-Fc protein (rhesus) (UniProt F6PJN1); assay: ELISA (FIG. 8)
[4] = biological target: rhesus PD-L1-Fc protein (rhesus) (UniProt F6PJN1); assay: ELISA, plate coated with rhesus PD-L1-Fc (FIG. 8)
[5] = biological target: human PD-L1 (form in the assay not stated) (human) (UniProt Q9NZQ7); assay: Octet Red 96 affinity ranking

B1: B1 (antibody, V domains shown)
VH: EVQLVESGGGLVQPGGSLRLSCAASGFTFSSYDMSWVRQAPGKSLEWVATISDAGGYIYYRDSVKGRFTISRDNAKNSLYLQMNSLRDEDTAVYICAREIFNRYALDYWGQGTTVTVSS
VL: DIQMTQSPSSLSASVGDRVTITCKASQDVTPAVAWYQQKPGKAPKLLIYSTSSRYTGVPSRFSGSGSGTDFTFTISSLQPEDIATYYCQQHYTTPLTFGQGTKLEIK
[1]
  binding: binds
[2]
  binding: binds

B2: Hu1210-41 (antibody, V domains shown)
VH: EVQLVESGGGLVQPGGSLRLSCAASGFTFSSYDMSWVRQAPGKSLEWVATISDAGGYIYYSDSVKGRFTISRDNAKNSLYLQMNSLRDEDTAVYICAREFGKRYALDYWGQGTTVTVSS
VL: DIQMTQSPSSLSASVGDRVTITCKASQDVTPAVAWYQQKPGKAPKLLIYSTSSRYTGVPSRFSGSGSGTDFTFTISSLQPEDIATYYCQQHYTTPLTFGQGTKLEIK
[3]
  binding: binds
[4]
  binding: binds

B3: Hu1210-8 (antibody, V domains shown)
VH: EVQLVESGGGLVKPGGSLRLSCAASGFTFSSYDMSWVRQAPGKGLEWVATISDGGGYIYYSDSVKGRFTISRDNAKNSLYLQMNSLRAEDTAVYYCAREFGKRYALDYWGQGTTVTVSS
VL: DIQMTQSPSSLSASVGDRVTITCKASQDVTPAVAWYQQKPGKSPKLLIYSTSSRYTGVPSRFSGSGSGTDFTFTISSLQPEDIATYYCQQHYTTPLTFGQGTKLEIK
[5]
  binding: binds
